Measured values: paper PMC7819943, “Rice protein-binding microarrays: a tool to detect cis-acting elements near promoter regions in rice”
The list shows a part of the results.

What follows are sequences tested against T1, OsSMF1 (Oryza sativa, UniProt Q6ZLB0 1-436) (assay: protein-binding microarray (RPBM); PBS, 2% BSA, 51.3 ng/ul salmon testes DNA, 50 uM zinc acetate, 200 nM TF, 25 C, 1 h; high values mean tight binding). Conditions: protein: recombinant; tags: N-terminal polyhistidine and DsRed monomer fusion (pET32a); chain copies: 2; label: CyDye5-dUTP incorporated in the synthesized complementary strand; 3' TTTTT single-stranded linker to array surface; dsDNA, one strand shown.
T1 sequence: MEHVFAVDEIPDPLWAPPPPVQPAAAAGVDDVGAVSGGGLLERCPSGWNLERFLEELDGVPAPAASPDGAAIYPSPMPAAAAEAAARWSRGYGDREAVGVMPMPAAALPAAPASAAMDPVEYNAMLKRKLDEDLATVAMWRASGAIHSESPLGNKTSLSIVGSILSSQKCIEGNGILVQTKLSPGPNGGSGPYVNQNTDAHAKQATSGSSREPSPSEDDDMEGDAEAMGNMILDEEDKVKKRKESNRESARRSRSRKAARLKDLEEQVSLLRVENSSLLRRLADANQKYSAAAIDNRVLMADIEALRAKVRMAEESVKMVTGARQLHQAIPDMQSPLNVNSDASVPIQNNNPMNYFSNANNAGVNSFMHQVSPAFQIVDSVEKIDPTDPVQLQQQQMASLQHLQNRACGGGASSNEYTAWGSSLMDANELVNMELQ
In short: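 Transcription factors were each fused at the N-terminus to a polyhistidine tag plus DsRed and expressed in E. coli BL21-CodonPlus before Ni–NTA purification. Binding to a double-stranded custom Agilent array was carried out with 200 nM protein at 25 °C for 1 h in PBS, 2% BSA, salmon testes DNA and 50 µM zinc acetate. The binding signal is per-feature fluorescence intensity, in arbitrary units, on an Axon 4000B scanner.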
“GCCGTCGCCATCGCCGTAGCGTCGCCGTCTCCGAGCGCCTCGGAGTCACCTAGTGCAG” was tested, and the binding signal was 3530 fluorescence intensity (a.u.). In the case of “TTGACCTGCTCCCACGTCAGCGTCGGCTCACCCCATCTGCCGGAGTCACCTAGTGCAG”, the binding signal is reported as 31400 fluorescence intensity (a.u.). With “TAGGCAAAGGGAGGCGAGGAGAAATACGGCATGCATGTTGCGGAGTCACCTAGTGCAG” the binding signal was 3170 fluorescence intensity (a.u.). “TTGGTGACTAAGCAGCTAGCTCATATTCCGTTTCAGCTTCCGGAGTCACCTAGTGCAG” was tested, and the binding signal was 6500 fluorescence intensity (a.u.). “TATATACTCAAATAGAATCATGATACGTCACATACCTACCCGGAGTCACCTAGTGCAG” was tested, and the binding signal was 3720 fluorescence intensity (a.u.). “CTCTGTGCTGAAATGGTTAGGTATGTTTTCTTTCTGCTCTCGGAGTCACCTAGTGCAG” was tested, and the binding signal was 40700 fluorescence intensity (a.u.). In the case of “ACAGAGGGAGGCGAATTTAACCCTAGCTAGCGTGTTCCCCCGGAGTCACCTAGTGCAG”, the binding signal is reported as 28500 fluorescence intensity (a.u.). For “CACGTAGAATCCACATATGGTGACATGGGATCCACGTGGCCGGAGTCACCTAGTGCAG”, the binding signal was 19500 fluorescence intensity (a.u.). “AGTATATCCTAAAGCGACACTTTACAGTCTCAAGGACATCCGGAGTCACCTAGTGCAG” was tested, and the binding signal was 11200 fluorescence intensity (a.u.). For “AAGTCTTCTTTCATCTCACCACGTCACTTTTGGTCCATAGCGGAGTCACCTAGTGCAG”, the binding signal was 9260 fluorescence intensity (a.u.). With “ATCGGCTTATGAAAACGTTGAATCGAGCGTGCTCAACTGGCGGAGTCACCTAGTGCAG” the binding signal was 3190 fluorescence intensity (a.u.). With “TCTTCTGAGTTCTTGTGTTTTCATACGTGCCAATCAAATGCGGAGTCACCTAGTGCAG” the binding signal was 4130 fluorescence intensity (a.u.). For “TTTGACGTCGATAGAGTGGTTATGCGTTATCAGTTTGCATCGGAGTCACCTAGTGCAG”, the binding signal was 4000 fluorescence intensity (a.u.). With “CGCGCCGTCGTCCAGCCACCGTCACGCCGCGCGGGGCGCCCGGAGTCACCTAGTGCAG” the binding signal was 3830 fluorescence intensity (a.u.). For “CCTTTCCTCCTTGTTACGTGGAGGGCCACACGCTCTGCAGCGGAGTCACCTAGTGCAG”, the binding signal was 5750 fluorescence intensity (a.u.). With “TCCCTCTTCCTCAAGCGCATCACCGTCACCGACGACGACCCGGAGTCACCTAGTGCAG” the binding signal was 3800 fluorescence intensity (a.u.). “GCATGAGGGTGTAGACGTGGAACGCCTTGCCGATCTTGCGCGGAGTCACCTAGTGCAG” was tested, and the binding signal was 4750 fluorescence intensity (a.u.). In the case of “AAGAAGGAGAGGGGAGGGGCTGACGGGTGGGATCACGTCGCGGAGTCACCTAGTGCAG”, the binding signal is reported as 4600 fluorescence intensity (a.u.). In the case of “TGGACCATGTGATTGTCAATGACAATGACCCATCATTGATCGGAGTCACCTAGTGCAG”, the binding signal is reported as 3220 fluorescence intensity (a.u.). In the case of “TTAACAGTGAGCTTGCGTGATGTCAGGTCAAATCGGGGAGCGGAGTCACCTAGTGCAG”, the binding signal is reported as 3900 fluorescence intensity (a.u.). For “CCATCGAATCCGGTTCGCGCGCAAGCAAAATCAGCAGCGTCGGAGTCACCTAGTGCAG”, the binding signal was 3830 fluorescence intensity (a.u.). “GCCGGCGAGGCTGCTGCCGGCAACGTCGATGACGAAGCGGCGGAGTCACCTAGTGCAG” was tested, and the binding signal was 4780 fluorescence intensity (a.u.). In the case of “CAGCCATATGATTAGTGCTCCGTATTACTTAGAATCAAGCCGGAGTCACCTAGTGCAG”, the binding signal is reported as 21700 fluorescence intensity (a.u.). For “TTTCCTGCGCACGCAAAACATAGCGACGTATTTTCTTAAGCGGAGTCACCTAGTGCAG”, the binding signal was 3480 fluorescence intensity (a.u.). With “GAAACGCTTGCCTGGACGTGGACGGAGCCGAGGACACATGCGGAGTCACCTAGTGCAG” the binding signal was 34000 fluorescence intensity (a.u.). For “TCGCCCTCGCCGCCGACGAGCTCGCCGCCGCGTTCCCGACCGGAGTCACCTAGTGCAG”, the binding signal was 3540 fluorescence intensity (a.u.). For “CCATTCCCAAAAGCAAAGCGAACCTAAGCTCGCTTCGTCTCGGAGTCACCTAGTGCAG”, the binding signal was 21000 fluorescence intensity (a.u.). With “ACAGTGCATGCATAAATTAAAACACCATACCAATTACTCCCGGAGTCACCTAGTGCAG” the binding signal was 28100 fluorescence intensity (a.u.). With “GGCCGGTGACATGATGTGTATATGTGTAGCCGCTGCCGCTCGGAGTCACCTAGTGCAG” the binding signal was 7290 fluorescence intensity (a.u.). In the case of “GCAAACATGTGTTAAGACTTAACAGGTGGAAGTAACCGACCGGAGTCACCTAGTGCAG”, the binding signal is reported as 3230 fluorescence intensity (a.u.). For “CGATGATTCTTCAATTAATTACACAGCTCTAGTGTGTAAACGGAGTCACCTAGTGCAG”, the binding signal was 22700 fluorescence intensity (a.u.). “ATTACAGTGTGCTTACATGTCATATCAACCTAATATGCACCGGAGTCACCTAGTGCAG” was tested, and the binding signal was 5340 fluorescence intensity (a.u.). For “CGCAGCCATTACCGGCTAGCGGCCACGTGGCGCGAGCGATCGGAGTCACCTAGTGCAG”, the binding signal was 22300 fluorescence intensity (a.u.). “AGTTTCACCATGCCTATTTAAATGGCTTCTTCTCTTTCCACGGAGTCACCTAGTGCAG” was tested, and the binding signal was 3360 fluorescence intensity (a.u.). For “AAGCTAGTACAAGATGCGAAATGTCGTCAGATTCAGAGATCGGAGTCACCTAGTGCAG”, the binding signal was 3580 fluorescence intensity (a.u.). With “CTCACTTCTCTCACCTCCCTATCAAATGCCAACTCAGCAACGGAGTCACCTAGTGCAG” the binding signal was 6360 fluorescence intensity (a.u.). For “ATCTACGCGACGTGGTACCCTGTGGGAGGTGTGCGTGGTACGGAGTCACCTAGTGCAG”, the binding signal was 4800 fluorescence intensity (a.u.). In the case of “CGACGATATCATCCATCTCACCCGTCGTCACCGCCTCGGCCGGAGTCACCTAGTGCAG”, the binding signal is reported as 3260 fluorescence intensity (a.u.). With “CACTCCTGCTCGACTCCTTGGTGACGTTTCTGTTTCTGTTCGGAGTCACCTAGTGCAG” the binding signal was 6370 fluorescence intensity (a.u.). In the case of “TGAATAAAAGTGTGGACCCCACATGTCAGTGACTCATTAACGGAGTCACCTAGTGCAG”, the binding signal is reported as 4590 fluorescence intensity (a.u.). “TTAAAGACCGTCTTCATTCCTAGGAAAATACCATCAATCACGGAGTCACCTAGTGCAG” was tested, and the binding signal was 4580 fluorescence intensity (a.u.). “TTTTGCCACATCAGATAACACATGTAACTCCACTAGATCCCGGAGTCACCTAGTGCAG” was tested, and the binding signal was 13000 fluorescence intensity (a.u.).
